Experimental data from patent publication US20160130577.
Construct, isoform or probe ends are uncertain for at least one entry. For some assays here: Where cells or extracts were used, other partners may take part. For some assays here: A negative result means that nothing was seen under these conditions.

Protein sequences, listed by entry. Tags and fused reporters are not part of them. Lines headed by an entry give the natural chain unless they say otherwise; changes in a name come on top.
UniProt P22626: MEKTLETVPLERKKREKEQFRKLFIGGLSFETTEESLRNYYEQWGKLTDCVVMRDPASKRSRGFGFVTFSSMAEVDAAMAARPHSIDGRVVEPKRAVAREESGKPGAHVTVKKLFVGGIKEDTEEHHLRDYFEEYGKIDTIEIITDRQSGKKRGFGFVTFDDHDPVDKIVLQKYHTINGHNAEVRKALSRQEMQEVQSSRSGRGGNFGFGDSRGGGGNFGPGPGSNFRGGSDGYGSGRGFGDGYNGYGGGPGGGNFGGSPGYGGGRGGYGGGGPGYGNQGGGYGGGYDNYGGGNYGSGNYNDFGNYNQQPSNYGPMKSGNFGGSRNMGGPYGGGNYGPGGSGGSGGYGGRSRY

Assays:
hnRNPA2B1 (Homo sapiens) [1] = target: hnRNPA2B1 (Homo sapiens) (UniProt P22626); assay: EMSA; settings: 5 mM MgCl2, 40 mM KCl, tRNA; purified recombinant protein; protein details: purified human protein, Origene; label: biotin
hnRNPA2B1 (Homo sapiens) [2] = target: hnRNPA2B1 (Homo sapiens) (UniProt P22626); assay: binding assay; settings: UV crosslink RNP immunoprecipitation and qPCR; protein in an extract; protein details: endogenous, EV lysate of T cells

Sequence	binding result (hnRNPA2B1 (Homo sapiens) [1])	binding result (hnRNPA2B1 (Homo sapiens) [2])
UGGUCUAGGAUUGUUGGAGGAG [miR-601]	binds	
CAAAGUGCUUACAGUGCAGGUAG [miR-17 (endogenous)]		no binding
